From article PMC10167121, “Completing the TRB family: newly characterized members show ancient evolutionary origins and distinct localization, yet similar interactions”
No constants are given. Whether binding was seen depends on the method and setting. A result given as binding can be weak or reduced; the word gives no strength. Tags and fused reporters may be left off the sequences shown.

Chains of the proteins cited; added tags and fusions are not shown. Lines headed by an entry give the natural chain unless they say otherwise; changes in a name come on top.
UniProt F4I7L1: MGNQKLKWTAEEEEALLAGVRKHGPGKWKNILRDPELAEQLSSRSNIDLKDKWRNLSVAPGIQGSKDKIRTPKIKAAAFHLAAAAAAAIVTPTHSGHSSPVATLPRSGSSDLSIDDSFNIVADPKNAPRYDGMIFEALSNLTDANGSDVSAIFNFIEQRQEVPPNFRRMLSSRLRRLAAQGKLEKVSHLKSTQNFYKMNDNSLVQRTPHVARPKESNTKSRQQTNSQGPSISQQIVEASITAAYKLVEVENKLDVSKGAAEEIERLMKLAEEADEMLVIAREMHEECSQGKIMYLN

How the values were obtained:
Assay in all cases: two-hybrid; Matchmaker GAL4-based system, S. cerevisiae PJ69-4a; growth on SD -Leu -Trp -His (with or without 1 mM or 3 mM 3-AT) or SD -Leu -Trp -Ade at 30 °C; empty vector as negative control
[1] = target: T1, Telomere repeat binding protein 1 (TRB1), yeast two-hybrid fusion (A. thaliana) (UniProt Q8VWK4)
T1 sequence: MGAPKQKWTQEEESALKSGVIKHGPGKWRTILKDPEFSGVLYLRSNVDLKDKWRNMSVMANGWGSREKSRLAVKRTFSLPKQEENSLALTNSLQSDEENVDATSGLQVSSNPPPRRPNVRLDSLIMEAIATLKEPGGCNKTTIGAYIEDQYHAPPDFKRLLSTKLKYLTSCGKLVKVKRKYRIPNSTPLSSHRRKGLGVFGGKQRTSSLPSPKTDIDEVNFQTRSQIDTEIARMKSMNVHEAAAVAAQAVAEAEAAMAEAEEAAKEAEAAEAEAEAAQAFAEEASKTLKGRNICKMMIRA

[2] = target: T2, Telomere repeat binding protein 2 (TRB2), yeast two-hybrid fusion (A. thaliana) (UniProt Q9FJW5)
T2 sequence: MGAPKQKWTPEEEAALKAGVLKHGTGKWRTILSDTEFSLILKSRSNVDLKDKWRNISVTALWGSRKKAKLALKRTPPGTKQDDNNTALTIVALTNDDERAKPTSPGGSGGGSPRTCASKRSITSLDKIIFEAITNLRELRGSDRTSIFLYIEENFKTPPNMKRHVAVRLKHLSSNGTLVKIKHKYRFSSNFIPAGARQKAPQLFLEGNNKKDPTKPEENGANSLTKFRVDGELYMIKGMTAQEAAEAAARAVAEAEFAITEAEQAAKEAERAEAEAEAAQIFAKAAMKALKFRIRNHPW

[3] = target: T3, Telomere repeat binding protein 3 (TRB3), yeast two-hybrid fusion (A. thaliana) (UniProt Q9M2X3)
T3 sequence: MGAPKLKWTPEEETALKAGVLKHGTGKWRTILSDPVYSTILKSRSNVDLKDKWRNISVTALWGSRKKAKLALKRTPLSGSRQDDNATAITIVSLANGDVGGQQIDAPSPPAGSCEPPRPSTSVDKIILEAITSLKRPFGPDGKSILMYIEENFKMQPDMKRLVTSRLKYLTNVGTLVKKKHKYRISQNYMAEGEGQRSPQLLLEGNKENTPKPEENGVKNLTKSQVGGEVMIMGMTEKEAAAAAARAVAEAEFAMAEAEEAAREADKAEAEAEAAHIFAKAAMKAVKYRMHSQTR

Measured: binding

Telomere repeat binding protein 4 (TRB4), yeast two-hybrid fusion (from UniProt F4I7L1)
binds: all assays above

Telomere repeat binding protein 5 (TRB5), yeast two-hybrid fusion (A. thaliana)
binds: all assays above
